Construct, isoform or probe ends are uncertain for at least one entry. For some assays here: At least one verdict was read from the data and is not stated in words by the source.
How the values were obtained:
[1] = system: MBP-ZmDREB4.1(31-147) (Zea mays); assay: competition with a labelled probe; details: unlabelled competitor against biotin-3xDRE; LightShift Chemiluminescent EMSA Kit (Thermo), manufacturer's instructions; pH and temperature not stated; recombinant protein; protein details: N-terminal MBP (pMAL-C2x)
[2] = system: MBP-ZmDREB4.1(31-147) (Zea mays); assay: EMSA; details: LightShift Chemiluminescent EMSA Kit (Thermo), manufacturer's instructions; pH and temperature not stated; recombinant protein; protein details: N-terminal MBP (pMAL-C2x); label: 5' biotin

Sequence | binding result [1] | binding result [2]
GATATACTACCGACATGAGTTCGATATACTACCGACATGAGTTCGATATACTACCGACATGAGTTC (double strand) [3xDRE competitor 1 (unlabelled)] | binds | 
GATATACTACCGACATGAGTTCGATATACTACCGACATGAGTTCGATATACTACCGACATGAGTTC (double strand) [3xDRE probe (biotin)] |  | binds

From article PMC5893645
